Results: publication PMC3182237
These are yes or no findings as the source states them, for the method shown. Some binding calls cover weakened binding; strength is not graded here.

Columns and labels:
DAF-21 (C. elegans) [1] = target: DAF-21 (C. elegans) (UniProt Q18688); experiment: AUC; sedimentation velocity with interference optics; UNC-45N 10 µM, unlabelled DAF-21 5 µM; dc/dt analysis; both purified
DAF-21 (C. elegans) [2] = target: DAF-21 (C. elegans) (UniProt Q18688); experiment: AUC; sedimentation velocity with fluorescence detection; fluorescein-labelled cofactor 300 nM, DAF-21 or variant 6 µM; no nucleotide; 20 to 22°C, 42.000 r.p.m.; dc/dt analysis; both purified
[3] = target: E292K-DAF-21 (C. elegans) (UniProt Q18688); experiment: condition: only without AMP-PNP (E292K-DAF-21 6 µM); AUC; sedimentation velocity with fluorescence detection; fluorescein-labelled cofactor 300 nM, DAF-21 or variant 6 µM; no nucleotide; 20 to 22°C, 42.000 r.p.m.; dc/dt analysis; both purified

Binder | binding (DAF-21 (C. elegans) [1]) | binding (DAF-21 (C. elegans) [2]) | binding [3]
UNC-45N (aa 1-461) (domain or fragment, UniProt G5EG62 1-461) MVARVQTAEEIRDEGNAAVKDQDYIKADELYTEALQLTTDEDKALRPVLYRNRAMARLKRDDFEGAQSDCTKALEFDGADVKALFRRSLAREQLGNVGPAFQDAKEALRLSPNDKGIVEVLQRLVKANNDKIKQTTSLANKVTDMEKLAFRGEAKDTEQKMTALNNLLVLCRESESGATGVWNQGALVPFVLNLINDASENEEVTVTAIRILDETIKNSVRCMKFLAMHDPDGPKSVRFVCRLMCKKSTKDFVDATGILVQRVFNAMAKMDRQKEMKPDPEVAEANKIWIIRVLLELQEMLQDPKVGAVQRETCIDLFLKNLMHMDGGIPRGWSWKFVEERGLLALLDVASQIPELCEYPVSAETRQHVAICLQRLEEDMVFDTKRTIFKEKVDMFFNALISRCTNDDEGHKYRIKLSCFLITMLQGPVDIGINLITNDQLTPIMLEMAASQDHLMQGIAA | binds | – | –
Cep23 (ZC395.10), fluorescein-labelled (protein, UniProt Q23280 1-175, 5-carboxyfluorescein (N-succinimidyl ester) at lysine residues) MAKQPTVLWAQRESLVYLTIEVDEAKIEELKGEGNKLHFQGSSKTDKYEATLEFFDEIDPASVKHTGSSTRVVEITVQKKTPAWWPRLLQNKGKVHWLKVDFGKWKDEDEDDEAEDAGAGIGGGMANGFDLNQYMSQMGGAGGADFGGLEDDEEDDDMPDLEDNEEEEGKNGTRA | – | no binding (condition: without AMP-PNP (DAF-21 6 µM)) | no binding
